Test results from paper PMC11963356.
No constants are given. Whether binding was seen depends on the method and setting. In cells and extracts the contact can be indirect. Some results given as binding are weak or reduced against the parent protein; the word gives no strength. Tags and fused reporters may be left off the sequences shown.

Molecular target: T1, GST-FOXC1 fusion protein (UniProt Q12948)
T1 sequence: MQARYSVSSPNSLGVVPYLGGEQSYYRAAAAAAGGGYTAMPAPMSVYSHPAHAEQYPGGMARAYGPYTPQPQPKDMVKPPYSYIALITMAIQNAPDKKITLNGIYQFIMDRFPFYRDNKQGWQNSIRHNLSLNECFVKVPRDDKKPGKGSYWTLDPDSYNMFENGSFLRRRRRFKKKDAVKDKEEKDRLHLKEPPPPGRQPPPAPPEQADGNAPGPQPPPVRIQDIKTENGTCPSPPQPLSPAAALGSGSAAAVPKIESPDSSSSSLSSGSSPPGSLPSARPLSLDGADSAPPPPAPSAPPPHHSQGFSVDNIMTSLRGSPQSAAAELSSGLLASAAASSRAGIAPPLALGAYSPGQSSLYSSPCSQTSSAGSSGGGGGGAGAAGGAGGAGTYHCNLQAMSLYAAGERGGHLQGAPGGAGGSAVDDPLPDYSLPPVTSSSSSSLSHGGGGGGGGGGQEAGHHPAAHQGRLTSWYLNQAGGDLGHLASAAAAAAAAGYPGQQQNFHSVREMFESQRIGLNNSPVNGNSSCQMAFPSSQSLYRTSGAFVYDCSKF
Test: pull-down; GST-tagged bait from E. coli BL21 lysate held on magnetic beads and washed; HEK-293T cell lysate added as capture protein lysate; eluate read by western blot for USP15 and FOXC1; only the target purified

B1: Ubiquitin-specific protease 15 (enzyme, UniProt Q9Y4E8 1-981)
chain: MAEGGAADLDTQRSDIATLLKTSLRKGDTWYLVDSRWFKQWKKYVGFDSWDKYQMGDQNVYPGPIDNSGLLKDGDAQSLKEHLIDELDYILLPTEGWNKLVSWYTLMEGQEPIARKVVEQGMFVKHCKVEVYLTELKLCENGNMNNVVTRRFSKADTIDTIEKEIRKIFSIPDEKETRLWNKYMSNTFEPLNKPDSTIQDAGLYQGQVLVIEQKNEDGTWPRGPSTPKSPGASNFSTLPKISPSSLSNNYNNMNNRNVKNSNYCLPSYTAYKNYDYSEPGRNNEQPGLCGLSNLGNTCFMNSAIQCLSNTPPLTEYFLNDKYQEELNFDNPLGMRGEIAKSYAELIKQMWSGKFSYVTPRAFKTQVGRFAPQFSGYQQQDCQELLAFLLDGLHEDLNRIRKKPYIQLKDADGRPDKVVAEEAWENHLKRNDSIIVDIFHGLFKSTLVCPECAKISVTFDPFCYLTLPLPMKKERTLEVYLVRMDPLTKPMQYKVVVPKIGNILDLCTALSALSGIPADKMIVTDIYNHRFHRIFAMDENLSSIMERDDIYVFEININRTEDTEHVIIPVCLREKFRHSSYTHHTGSSLFGQPFLMAVPRNNTEDKLYNLLLLRMCRYVKISTETEETEGSLHCCKDQNINGNGPNGIHEEGSPSEMETDEPDDESSQDQELPSENENSQSEDSVGGDNDSENGLCTEDTCKGQLTGHKKRLFTFQFNNLGNTDINYIKDDTRHIRFDDRQLRLDERSFLALDWDPDLKKRYFDENAAEDFEKHESVEYKPPKKPFVKLKDCIELFTTKEKLGAEDPWYCPNCKEHQQATKKLDLWSLPPVLVVHLKRFSYSRYMRDKLDTLVDFPINDLDMSEFLINPNAGPCRYNLIAVSNHYGGMGGGHYTAFAKNKDDGKWYYFDDSSVSTASEDQIVSKAAYVLFYQRQDTFSGTGFFPLDRETKGASAATGIPLESDEDSNDNDNDIENENCMHTN
  binding: binds
